# Experimental data published in the supplement of paper PMC12823440, “Inhibitors supercharge kinase turnover through native proteolytic circuits” (Nature, 2025).
# Protein sequences, listed by entry. Tags and fused reporters are not part of them.
# UniProt P09619, whole entry: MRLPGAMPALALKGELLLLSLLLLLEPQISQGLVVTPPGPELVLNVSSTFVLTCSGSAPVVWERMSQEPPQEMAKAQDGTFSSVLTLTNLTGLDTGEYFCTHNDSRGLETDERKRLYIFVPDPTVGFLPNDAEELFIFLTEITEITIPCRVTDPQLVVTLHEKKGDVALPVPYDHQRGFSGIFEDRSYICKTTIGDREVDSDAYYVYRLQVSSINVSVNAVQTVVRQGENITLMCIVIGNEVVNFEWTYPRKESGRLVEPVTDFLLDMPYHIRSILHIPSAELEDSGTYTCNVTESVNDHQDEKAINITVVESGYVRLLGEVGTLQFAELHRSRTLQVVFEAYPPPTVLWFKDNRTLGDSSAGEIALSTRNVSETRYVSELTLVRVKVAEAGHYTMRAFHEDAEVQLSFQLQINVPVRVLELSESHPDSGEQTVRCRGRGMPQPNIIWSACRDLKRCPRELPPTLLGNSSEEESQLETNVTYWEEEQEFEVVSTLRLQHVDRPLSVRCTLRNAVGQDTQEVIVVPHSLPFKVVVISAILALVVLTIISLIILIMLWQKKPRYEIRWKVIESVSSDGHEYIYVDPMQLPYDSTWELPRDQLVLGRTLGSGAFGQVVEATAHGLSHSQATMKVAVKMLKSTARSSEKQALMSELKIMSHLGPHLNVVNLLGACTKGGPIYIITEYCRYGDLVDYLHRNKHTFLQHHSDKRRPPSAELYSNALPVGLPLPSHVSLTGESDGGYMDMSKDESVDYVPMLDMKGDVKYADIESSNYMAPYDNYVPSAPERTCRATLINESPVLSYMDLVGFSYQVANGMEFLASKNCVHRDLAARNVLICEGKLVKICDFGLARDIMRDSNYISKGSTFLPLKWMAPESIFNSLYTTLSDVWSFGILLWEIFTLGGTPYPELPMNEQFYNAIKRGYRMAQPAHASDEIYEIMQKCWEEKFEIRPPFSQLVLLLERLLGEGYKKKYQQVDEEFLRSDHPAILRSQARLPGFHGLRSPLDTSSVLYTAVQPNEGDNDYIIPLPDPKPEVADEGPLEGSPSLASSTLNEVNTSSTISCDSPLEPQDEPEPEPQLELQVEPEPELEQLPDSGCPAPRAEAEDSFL
# Counter-ions that a name gives are not always drawn. This is one part of the list. The calls rarely recur for the same compound in another form.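 In K562 cells expressing nanoluciferase-fused kinases, luminescence was recorded at 4 h intervals between 2 and 18 h, normalized as percent of control with DMSO at 100% and a positive control at 0%. A significant (2 sigma) signal drop marks a time point as decreased. The authors' rule for a hit is not shown and takes in more than the number of time points.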
# Biological target: PDGFRB (UniProt P09619)
# Test: number of time points (of 5) at which kinase-Nluc abundance scored as decreased, DMSO-normalised (count); higher = more persistent destabilization
# Settings: K562; 2-18 h
row,SMILES,number of time points
1,CN1C(=O)[C@@H](NC(=O)c2n[nH]c(Cc3ccccc3)n2)COc2ccccc21 (10 µM),0
2,O=C1NC(=Nc2c(Cl)cccc2Cl)S/C1=C\c1ccc2nccnc2c1 (2.5 µM),2
3,Cc1cccc(-c2[nH]c(C(C)(C)C)nc2-c2ccc3nccnc3c2)n1 (10 µM),0
4,O=C(Nc1cccc(C(F)(F)F)c1)c1cccc2cc(Oc3cc(CO)ncn3)ccc12 (10 µM),0
5,CNc1cc(Nc2cccn(-c3ccccn3)c2=O)nn2c(C(=O)N[C@@H]3C[C@@H]3F)cnc12 (2.5 µM),0
6,Cc1ccn2c(C(=O)C(=O)c3ccccc3)c(-c3ccccc3)nc2c1 (10 µM),0
7,COc1cc(N2CCOCC2)ccc1Nc1ncc(Cl)c(Nc2ccccc2NS(C)(=O)=O)n1 (2.5 µM),0
8,O=C(NC1CCOCC1)c1ccc(-c2cc(-c3c[nH]nc3-c3ccccn3)ccn2)cc1 (10 µM),0
9,O=C1NC(=O)/C(=C/c2ccc3nccc(-c4ccncc4)c3c2)S1 (10 µM),0
10,Cc1ncc(NC(=O)NC2c3ccccc3-c3ccccc32)c(-c2ccccc2)n1 (10 µM),0
11,CC(C)C[C@@H](C(=O)Nc1ccn(C[C@@H](O)CO)n1)N1CC(Oc2ccccc2Cl)=CC1=O [Dorzagliatin] (10 µM),0
12,O=C1O[C@H]([C@@H](O)CO)C(O)=C1OP(=O)(O)O [2-Phospho-L-ascorbic acid (trisodium)] (10 µM),0
13,C[C@@H]1CC(=O)c2c(ccc3c2C(=O)c2cccc(O)c2C3=O)C1 [Ochromycinone] (10 µM),0
14,Cc1c(-c2ccc(C(N)=O)c3[nH]c4cc(C(C)(C)O)ccc4c23)cccc1-n1cnc2ccccc2c1=O (2.5 µM),0
15,CC(C)(C)n1nc(Cc2ccccc2O)c2c(N)ncnc21 (10 µM),0
16,C=CC(=O)N1C(=O)CC(c2ccc(F)cc2)Sc2ccccc21 (stereo not drawn) [GSK-3β inhibitor 3] (10 µM),0
17,CCc1ccc(OCC(=O)Nc2ccc(F)c([N+](=O)[O-])c2)cc1 (10 µM),0
18,CN(C)c1nc2c(Br)c(Br)c(Br)c(Br)c2[nH]1 (10 µM),0
19,Nc1ncnc2c1c(-c1ccc(Oc3ccccc3)cc1)nn2C1CCN(CCOCCOCCOc2ccc3c(c2)CN(C2CCC(=O)NC2=O)C3=O)CC1 (centres undefined) (2.5 µM),0
20,Cc1cnc(NC2CCOCC2)nc1-n1cnc(C(=O)N[C@H](CN)c2cc(F)cc(Cl)c2)c1 (10 µM),0

row,SMILES,number of time points
1,FC(F)(F)c1ccc(/C=C/c2nc(COc3ccc(CCCCn4ccnn4)cc3)co2)cc1 [Mubritinib] (10 µM),0
2,Cc1cc2sc(NC(=O)Cc3ccccc3)nc2cc1Cl (10 µM),0
3,O=C(CNc1cccc(Cl)c1)NC1CCCN(c2ncnc3[nH]ccc23)C1 (centres undefined) (10 µM),0
4,Oc1ccc(/C=C/c2cc(O)cc(F)c2)cc1 [Resveratrol analog 1] (10 µM),0
5,CC/C(=N\NC(=O)c1ccnc(NCCCN2CCOCC2)c1)c1ccc(Cl)cc1O (2.5 µM),0
6,O[C@@H]1CO[C@H]2[C@@H]1OC[C@H]2Oc1nc2nc(-c3ccc(-c4ccccc4)cc3)c(Cl)cc2[nH]1 (10 µM),0
7,Nc1c(C(=O)NCc2ccc(C(=O)NCCCC3CCCCC3)cc2)cnn1-c1ccccc1 (2.5 µM),0
8,Cc1ccc(C(=O)Nc2sc(Nc3ccccc3)nc2C(N)=O)cc1 (10 µM),0
9,COc1cc(N(C)CCN(C)C)c(N)cc1Nc1nccc(-c2cn(C)c3ccccc23)n1 [Mutated EGFR-IN-1] (10 µM),0
10,CCN(CC)c1cc2oc(=O)c(-c3nc4ccccc4o3)cc2cc1C (2.5 µM),0
11,Cn1cc(-c2cnc3cnn(S(=O)(=O)c4cnc5ccc(-c6cnn(C)c6)cn45)c3c2)cn1 [Glumetinib] (10 µM),0
12,Cc1ccc(NC(=O)c2ccnc(C(F)(F)F)c2)cc1-c1cc(OCCO)nc(N2CCOCC2)c1 (10 µM),0
13,C=CC(=O)Nc1cccc(-c2cccc3cnc(Nc4ccc(N5CCN(CCO)CC5)c(F)c4F)nc23)c1 [Olafertinib] (2.5 µM),0
14,CC(C)(C[C@H](N)C(=O)O)C(F)F [NV-5138 (hydrochloride)] (10 µM),0
15,Cc1cc(C)nc(NS(=O)(=O)c2ccc(NC(=S)NC(=O)COc3ccc(Br)cc3Cl)cc2)n1 (2.5 µM),0
16,CC[C@@](C)(Nc1ccnc(-c2c[nH]c3ncccc23)n1)C(=O)NCC(F)(F)F [Decernotinib] (10 µM),0
17,COc1cc2ncnc(-n3nc(-c4ccccn4)nc3N)c2cc1OC (10 µM),0
18,O=C1/C(=C\c2ccc(Cl)cc2)C=C(c2ccccc2)N1c1ccc(O)cc1 (2.5 µM),0
19,Oc1ccc(/C=C/c2cc(O)cc(O)c2)cc1 [Resveratrol] (10 µM),0

# Taken from the entries so far, two compounds:
row,SMILES,number of time points
8,Cc1ccc(C(=O)Nc2sc(Nc3ccccc3)nc2C(N)=O)cc1 (10 µM),0
9,COc1cc(N(C)CCN(C)C)c(N)cc1Nc1nccc(-c2cn(C)c3ccccc23)n1 [Mutated EGFR-IN-1] (10 µM),0
